Test results published in publication PMC12266122.
No constants are given. Whether binding was seen depends on the method and setting. In cells and extracts the contact can be indirect. A yes stands for co-enrichment or nearness to the bait. Other partners may have been found.

Sequences of proteins named here, by UniProt entry; tags and fusion partners are left off.
UniProt Q9H4A3: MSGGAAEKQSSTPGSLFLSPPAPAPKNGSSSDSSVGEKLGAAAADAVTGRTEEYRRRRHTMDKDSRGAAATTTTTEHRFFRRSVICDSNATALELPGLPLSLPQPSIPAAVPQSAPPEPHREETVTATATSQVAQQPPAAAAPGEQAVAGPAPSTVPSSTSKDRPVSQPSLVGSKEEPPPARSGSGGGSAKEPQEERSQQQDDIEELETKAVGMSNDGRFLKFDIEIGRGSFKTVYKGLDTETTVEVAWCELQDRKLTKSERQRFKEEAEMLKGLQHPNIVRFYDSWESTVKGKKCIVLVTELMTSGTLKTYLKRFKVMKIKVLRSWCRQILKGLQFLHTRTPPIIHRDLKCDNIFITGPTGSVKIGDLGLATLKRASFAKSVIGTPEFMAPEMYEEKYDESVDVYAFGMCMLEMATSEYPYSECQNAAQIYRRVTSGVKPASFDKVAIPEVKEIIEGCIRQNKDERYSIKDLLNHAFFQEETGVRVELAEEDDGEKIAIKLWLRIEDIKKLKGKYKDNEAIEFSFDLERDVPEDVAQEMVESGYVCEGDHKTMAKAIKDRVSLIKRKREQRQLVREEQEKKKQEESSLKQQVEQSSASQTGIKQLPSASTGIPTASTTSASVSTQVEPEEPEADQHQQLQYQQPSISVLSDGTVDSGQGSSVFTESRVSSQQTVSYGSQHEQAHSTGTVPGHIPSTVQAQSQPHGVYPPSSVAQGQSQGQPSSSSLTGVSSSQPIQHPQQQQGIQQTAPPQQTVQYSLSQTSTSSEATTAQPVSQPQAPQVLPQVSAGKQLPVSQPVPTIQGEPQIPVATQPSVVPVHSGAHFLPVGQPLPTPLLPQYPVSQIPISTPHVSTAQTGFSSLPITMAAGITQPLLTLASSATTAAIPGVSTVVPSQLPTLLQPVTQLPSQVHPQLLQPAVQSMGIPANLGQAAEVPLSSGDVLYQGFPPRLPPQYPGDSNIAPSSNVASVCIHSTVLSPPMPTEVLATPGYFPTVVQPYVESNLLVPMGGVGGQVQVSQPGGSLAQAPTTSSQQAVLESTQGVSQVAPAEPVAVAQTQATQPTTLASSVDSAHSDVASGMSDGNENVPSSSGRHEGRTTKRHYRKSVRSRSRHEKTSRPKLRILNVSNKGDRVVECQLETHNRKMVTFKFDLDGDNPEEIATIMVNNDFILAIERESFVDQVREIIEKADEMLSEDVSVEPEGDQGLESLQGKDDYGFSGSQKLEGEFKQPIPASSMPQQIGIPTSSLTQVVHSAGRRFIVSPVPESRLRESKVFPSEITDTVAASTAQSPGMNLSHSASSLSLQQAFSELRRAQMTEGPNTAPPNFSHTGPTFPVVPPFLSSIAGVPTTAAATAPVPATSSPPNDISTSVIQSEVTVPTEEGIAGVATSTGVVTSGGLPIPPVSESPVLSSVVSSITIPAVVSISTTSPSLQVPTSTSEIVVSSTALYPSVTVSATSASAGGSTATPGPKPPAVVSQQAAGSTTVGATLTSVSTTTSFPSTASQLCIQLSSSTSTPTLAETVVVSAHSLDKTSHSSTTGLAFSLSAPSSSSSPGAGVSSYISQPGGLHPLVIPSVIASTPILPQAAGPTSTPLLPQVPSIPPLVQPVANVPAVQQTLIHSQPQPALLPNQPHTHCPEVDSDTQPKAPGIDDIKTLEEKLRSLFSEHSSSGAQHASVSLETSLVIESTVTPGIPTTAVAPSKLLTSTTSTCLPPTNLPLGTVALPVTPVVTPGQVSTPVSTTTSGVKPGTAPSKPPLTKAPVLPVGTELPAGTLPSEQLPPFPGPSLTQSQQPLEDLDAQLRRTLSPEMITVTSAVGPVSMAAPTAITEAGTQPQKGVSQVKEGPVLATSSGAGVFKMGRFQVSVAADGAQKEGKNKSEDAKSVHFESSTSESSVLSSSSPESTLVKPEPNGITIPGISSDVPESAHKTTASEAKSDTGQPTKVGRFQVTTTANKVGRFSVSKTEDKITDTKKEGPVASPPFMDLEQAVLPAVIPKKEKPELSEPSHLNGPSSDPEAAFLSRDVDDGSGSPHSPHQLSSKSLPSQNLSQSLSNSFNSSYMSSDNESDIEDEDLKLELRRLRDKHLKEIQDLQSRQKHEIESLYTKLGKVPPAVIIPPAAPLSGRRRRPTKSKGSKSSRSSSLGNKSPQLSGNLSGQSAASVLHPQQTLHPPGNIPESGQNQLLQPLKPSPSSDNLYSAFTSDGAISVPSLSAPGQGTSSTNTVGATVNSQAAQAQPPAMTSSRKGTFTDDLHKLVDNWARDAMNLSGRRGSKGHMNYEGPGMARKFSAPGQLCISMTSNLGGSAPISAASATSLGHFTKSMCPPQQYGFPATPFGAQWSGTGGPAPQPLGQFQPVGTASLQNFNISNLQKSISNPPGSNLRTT
UniProt Q9UHY1: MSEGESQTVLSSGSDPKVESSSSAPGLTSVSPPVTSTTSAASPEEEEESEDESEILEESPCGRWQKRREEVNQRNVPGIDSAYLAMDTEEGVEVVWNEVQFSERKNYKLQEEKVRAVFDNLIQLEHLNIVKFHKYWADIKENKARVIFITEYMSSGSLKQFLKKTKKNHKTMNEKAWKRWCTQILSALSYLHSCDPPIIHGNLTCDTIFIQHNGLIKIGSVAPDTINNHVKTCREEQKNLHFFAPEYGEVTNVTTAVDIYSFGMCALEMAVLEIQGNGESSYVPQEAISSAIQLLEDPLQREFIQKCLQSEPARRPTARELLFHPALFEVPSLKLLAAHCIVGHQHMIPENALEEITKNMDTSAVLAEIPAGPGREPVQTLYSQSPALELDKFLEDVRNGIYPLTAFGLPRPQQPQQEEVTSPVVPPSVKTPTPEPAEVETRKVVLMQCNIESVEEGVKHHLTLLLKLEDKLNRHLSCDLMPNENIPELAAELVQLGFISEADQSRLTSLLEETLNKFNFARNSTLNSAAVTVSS

Key:
[1] = molecular target: GFP-WNK1 (N-terminal GFP knock-in at the endogenous WNK1 locus) (human (endogenous in HEK293)) (UniProt Q9H4A3); test: proximity labelling; GFP-WNK1 TurboID cells with or without 0.5 M sorbitol; streptavidin magnetic bead pull-down from 2 mg lysate; immunoblot (Fig. 1F)
[2] = molecular target: GFP-WNK1 (N-terminal GFP knock-in at the endogenous WNK1 locus) (human (endogenous in HEK293)) (UniProt Q9H4A3); test: proximity labelling; GFP-WNK1 KI and WT HEK293 cells expressing Flag-TurboID-aGFP6M; 0.5 mM biotin with or without 0.5 M sorbitol for 5 min; streptavidin enrichment from lysate; DIA mass spectrometry
[3] = molecular target: GFP-NRBP1 (N-terminal GFP knock-in at the endogenous NRBP1 locus) (human (endogenous in HEK293)) (UniProt Q9UHY1); test: affinity purification with mass spectrometry; GFP-NRBP1 KI and WT HEK293 cells with or without 0.5 M sorbitol for 30 min; lysis in 20 mM Hepes pH 7.5, 150 mM NaCl, 0.5% NP-40; GFP-Trap magnetic beads, 4°C, 2 hours; DIA mass spectrometry

B1: TSC22D2, endogenous (protein, UniProt O75157 1-780)
chain: MSKMPAKKKSCFQITSVTTAQVATSITEDTESLDDPDESRTEDVSSEIFDVSRATDYGPEEVCERSSSEETLNNVGDAETPGTVSPNLLLDGQLAAAAAAPANGGGVVSARSVSGALASTLAAAATSAPAPGAPGGPQLAGSSAGPVTAAPSQPPTTCSSRFRVIKLDHGSGEPYRRGRWTCMEYYERDSDSSVLTRSGDCIRHSSTFDQTAERDSGLGATGGSVVVVVASMQGAHGPESGTDSSLTAVSQLPPSEKMSQPTPAQPQSFSVGQPQPPPPPVGGAVAQSSAPLPPFPGAATGPQPMMAAAQPSQPQGAGPGGQTLPPTNVTLAQPAMSLPPQPGPAVGAPAAQQPQQFAYPQPQIPPGHLLPVQPSGQSEYLQQHVAGLQPPSPAQPSSTGAAASPATAATLPVGTGQNASSVGAQLMGASSQPSEAMAPRTGPAQGGQVAPCQPTGVPPATVGGVVQPCLGPAGAGQPQSVPPPQMGGSGPLSAVPGGPHAVVPGVPNVPAAVPAPSVPSVSTTSVTMPNVPAPLAQSQQLSSHTPVSRSSSIIQHVGLPLAPGTHSAPTSLPQSDLSQFQTQTQPLVGQVDDTRRKSEPLPQPPLSLIAENKPVVKPPVADSLANPLQLTPMNSLATSVFSIAIPVDGDEDRNPSTAFYQAFHLNTLKESKSLWDSASGGGVVAIDNKIEQAMDLVKSHLMYAVREEVEVLKEQIKELVERNSLLERENALLKSLSSNDQLSQLPTQQANPGSTSQQQAVIAQPPQPTQPPQQPNVSSA
binding [1]: binds
binding [2]: binds

B2: TSC22D4, endogenous (protein, UniProt Q9Y3Q8 1-395)
chain: MSGGKKKSSFQITSVTTDYEGPGSPGASDPPTPQPPTGPPPRLPNGEPSPDPGGKGTPRNGSPPPGAPSSRFRVVKLPHGLGEPYRRGRWTCVDVYERDLEPHSFGGLLEGIRGASGGAGGRSLDSRLELASLGLGAPTPPSGLSQGPTSWLRPPPTSPGPQARSFTGGLGQLVVPSKAKAEKPPLSASSPQQRPPEPETGESAGTSRAATPLPSLRVEAEAGGSGARTPPLSRRKAVDMRLRMELGAPEEMGQVPPLDSRPSSPALYFTHDASLVHKSPDPFGAVAAQKFSLAHSMLAISGHLDSDDDSGSGSLVGIDNKIEQAMDLVKSHLMFAVREEVEVLKEQIRELAERNAALEQENGLLRALASPEQLAQLPSSGVPRLGPPAPNGPSV
binding [3]: binds
binding [1]: binds
binding [2]: binds
